Laboratory results reported in doi:10.1101/2023.05.26.542350.
For some assays here: The comparison behind a weaker result is the experiment's own reference, which may not be listed here. For some assays here: Construct, isoform or probe ends are uncertain for at least one entry. For some assays here: At least one verdict rests on a figure or table, not on a statement of the authors.

Chains of the proteins cited; added tags and fusions are not shown. Lines headed by an entry give the natural chain unless they say otherwise; changes in a name come on top.
UniProt Q8IZP0: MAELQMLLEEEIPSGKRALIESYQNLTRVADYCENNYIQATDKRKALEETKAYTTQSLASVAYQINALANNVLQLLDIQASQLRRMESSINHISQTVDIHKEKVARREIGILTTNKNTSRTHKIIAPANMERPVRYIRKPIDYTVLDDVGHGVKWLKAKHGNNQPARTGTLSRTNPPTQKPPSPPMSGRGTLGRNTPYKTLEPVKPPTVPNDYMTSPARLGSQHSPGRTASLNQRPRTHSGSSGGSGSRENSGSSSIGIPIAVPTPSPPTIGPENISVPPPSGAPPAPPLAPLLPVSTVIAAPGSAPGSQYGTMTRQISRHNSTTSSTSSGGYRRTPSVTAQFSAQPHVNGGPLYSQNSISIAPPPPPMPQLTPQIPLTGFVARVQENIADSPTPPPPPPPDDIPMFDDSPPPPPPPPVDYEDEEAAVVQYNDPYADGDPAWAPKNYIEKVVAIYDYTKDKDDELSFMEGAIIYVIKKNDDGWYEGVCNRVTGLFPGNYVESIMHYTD

Legend:
[1] = molecular target: ABI1-HHR-DelEx4 del155-159 (UniProt Q8IZP0); assay: NMR; conditions: 15N-1H HSQC titration, 80 uM protein, up to 7.5 eq DNA, 20 C; residues 93-170
[2] = tested on: ABI1 full-length; assay: fluorescence quenching or polarization; conditions: low micromolar, similar to HHR
[3] = molecular target: ABI1-HHR-DelEx4 del155-159 (UniProt Q8IZP0); assay: fluorescence quenching or polarization; conditions: Kd shown only in figure; residues 93-170

| Sequence | binding result [1] | binding result [2] | binding result [3] |
| --- | --- | --- | --- |
| ACACTAATTGCAGGC (double strand) [HOXB4] | binds more weakly | binds | binds more weakly |
| AGGCGCCGGCGTGTCA (double strand) [C1orf106] | – | binds | – |
| CCCGAACTGTGCGGT (double strand) [EP300-AS1] | – | binds | – |
| GCGTCGTTAGGGCCC (double strand) [MIR1289-1] | – | binds | – |
| GTCTGACTCGTCCTC (double strand) [L3MBTL2] | – | binds | – |
| GTGGTGGCTCTGAAAC (double strand) [BATF3] | – | binds | – |
